This note sets out measurements from paper PMC5381960.

For at least one entry, the source does not settle the construct or the ends of the probe. Tags and fusion partners may be left off the protein sequences shown.

This series concerns the target T1, M.HpaII methyltransferase (HpaII DNA cytosine methyltransferase) (UniProt P15446).
T1 sequence (looked up, limits assumed): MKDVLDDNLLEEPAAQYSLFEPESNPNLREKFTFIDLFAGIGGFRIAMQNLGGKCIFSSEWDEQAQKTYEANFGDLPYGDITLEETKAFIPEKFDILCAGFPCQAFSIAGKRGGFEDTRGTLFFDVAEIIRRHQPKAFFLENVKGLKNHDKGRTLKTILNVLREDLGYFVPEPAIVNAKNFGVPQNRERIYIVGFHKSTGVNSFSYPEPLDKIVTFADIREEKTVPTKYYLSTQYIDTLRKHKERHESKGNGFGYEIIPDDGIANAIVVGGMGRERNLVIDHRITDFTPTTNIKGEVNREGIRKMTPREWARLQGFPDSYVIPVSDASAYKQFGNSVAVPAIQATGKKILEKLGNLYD
The series can be described thus: covalent adduct trapping at 5-fluoro-dC (used as block in CMG unwinding assay, native PAGE). The following applies: irreversible, adduct formed as in Duxin 2014, 5-fluoro-dC at second C of CCGG in strand 1 (position 49), phosphorothioate bonds linking the last six dT at the 3' end of strand 2, CMG unwinding assays: 20 mM Tris acetate pH 7.6, 5 mM DTT, 0.1 mM EDTA, 10 mM MgSO4, 30 mM KCl, 40 ug/ml BSA, 1 mM ATP, 30 C, commercial protein, label: 5'-32P on strand 2.

Regarding “TTTTTTTTTTTTTTTTTTTTTTTTTTTTTTTTTTTTTTTTGACGCTGCCGGATTCTGGCTTGCTAGGACATTACAGGATCGTTCGGTCTC / GAGACCGAACGATCCTGTAATGTCCTAGCAAGCCAGAATCCGGCAGCGTCTTTTTTTTTTTTTTTTTTTTTTTTTTTTTTTTTTTTTTTT [M.HpaII LAG/LEAD fork with 5-fluoro-dC]”, the binding result was “binds”.
